Source: PubChem BioAssay AID504444 (National Center for Advancing Translational Sciences (NCATS), 2011)
The campaign covered roughly 360,000 compounds. About 7,500 (2.1%) were called active. Inconclusive means that the source gave no clear call. Such entries were picked first, then a sample of the others. Calls come from the whole dose curve; as a rule, active = well fitted inhibition curve with a large enough effect; inconclusive = small, poorly fitted or top-dose-only effect, or effect the other way; inactive = flat fitted curve, though single readings scatter. A potency beside an inconclusive call is a rough fit, not a confirmed value.

Test: Nrf2 qHTS screen for inhibitors; note: nearly all actives have a fitted effect of over 60% in size
Conditions: A549 ARE-Fluc reporter, luciferase luminescence, 18-24 h; series mostly up to 46 µM
Method in brief: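 A549 ARE_Fluc cells (5000/well, 5% FBS OPTI-MEM) pre-incubated 2 h, then treated with compounds 18-24 h at 37C/5% CO2 in concentration-response. CellTiter-Fluor viability read first; BugLite luciferase luminescence after 15 min at room temperature gives Nrf2 activity.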
Potency is the fitted concentration of half-maximal effect.

| SMILES | Potency |
| --- | --- |
| O=S(=O)(Nc1ccc2c(c1)OCCO2)c1cccs1 | inconclusive: 25.9 µM [activator, partial curve, poor fit] |
| CCc1noc(C)c1C(=O)N(CC)CC(=O)NCc1ccc(Cl)cc1 | inconclusive: 29.1 µM [falling, single point] |
| C=CCn1c(SCCC)nc2ccccc2c1=O | inactive |
| CCN(C(=O)C1CCN(c2nc(-c3ccc(OC)cc3)no2)CC1)c1ccccc1 | inconclusive: 29.1 µM [falling, single point] |
| CC(=O)c1ccc(S(=O)(=O)N2CCN(CCOc3ccc(Br)cc3)CC2)cc1 | active: 4.11 µM |
| O=C(Nc1ccc2oc(-c3ccncc3)nc2c1)c1ccc2c(c1)OCO2 | inconclusive: 29.1 µM [falling, single point] |
| COc1cc(OC)cc(C(=O)NCc2cc(C)nc3ccccc23)c1 | inconclusive: 11.6 µM [falling, partial curve] |
| Nc1nc2nccc(-c3cccnc3)n2n1 | inconclusive: 0.103 µM [falling, full curve, poor fit] |
| O=C(Nc1ncc(Cc2cccc(Cl)c2)s1)C1CCCO1 (stereo not given) | inconclusive: 0.731 µM [activator, full curve, poor fit] |
| Cc1ccc(-c2nc(NC(=O)c3cc(C(C)(C)C)nn3C)sc2C)cc1Cl | active: 20.6 µM |
| CCCCN(CC)CCCNC(=O)c1cn(C)c2ccc(S(=O)(=O)N(C)C3CCCCC3)cc2c1=O | inactive |
| Cc1ccc2cc(C)c(SCC(=O)Nc3ccc(S(=O)(=O)N4CCCC4)cc3)nc2c1 | inactive |
| CCn1c(=S)[nH]c2scc(-c3cccs3)c2c1=O | inconclusive: 29.1 µM [falling, single point] |
| COC(=O)c1ccc(NC(=O)Cc2ccccc2)cc1 | inconclusive: 25.9 µM [activator, single point] |
| Cc1cccc2sc(N(CCCN(C)C)C(=O)COc3ccc(Cl)cc3)nc12 | inactive |
| C=C1C(=O)C2=CC1CCC(=O)C1(C)CCC(OC(C)=O)C(C)(C)C1CC2O (stereo not given) | active: 14.6 µM |
| COCC(C)n1c(C)cc(C(=O)COc2ccc(S(=O)(=O)N3CCOCC3)cc2Cl)c1C (stereo not given) | inconclusive: 5.8 µM [falling, single point] |
| Cc1cccc(C)c1NC(=O)CNC(=O)c1ccc(S(=O)(=O)NCc2ccco2)cc1 | inactive |
| COc1ccc(OCC(O)CNC(=O)c2ccc(Br)cc2)cc1 (stereo not given) | inactive |
| COCCCNC(=S)N1CCC(NC(=O)Nc2ccc(C)cc2)CC1 | inactive |
| Cc1ccsc1C(=O)Nc1ccc(C(=O)O)cc1 | inactive |
| CN(Cc1ccc(F)cc1)C(=O)c1cccc(S(=O)(=O)NCc2ccccc2)c1 | inconclusive: 16.4 µM [falling, partial curve, poor fit] |
| Cc1cc(Nc2ccc([N+](=O)[O-])cc2)nc2ccccc12 | inactive |

| SMILES | Potency |
| --- | --- |
| COCCCNC(=O)c1c(NC(=O)c2cc(=O)c3cc(C)c(C)cc3o2)sc2c1CCCC2 | inconclusive: 29.1 µM [activator, single point] |
| Cc1ccc2c(N)c(C#N)sc2n1 | inactive |
| COc1ccccc1CCNC(=O)c1cc2ccccn2n1 | inconclusive: 0.146 µM [falling, partial curve, poor fit] |
| CN(Cc1cccs1)c1nc(-c2cccnc2)nc2ccccc12 | inconclusive: 32.6 µM [falling, single point] |
| COc1ccc(OC)c(-c2cc(C3CCN(c4cc(Cl)nc(N)n4)CC3)[nH]n2)c1 | inconclusive: 23.1 µM [falling, single point] |
| CCOC(=O)c1c(CSC(=N)N)n(-c2ccc(C)cc2)c2cc(Br)c(OC(C)=O)cc12 | inconclusive: 16.4 µM [activator, partial curve, poor fit] |
| Cc1c(NC(=O)c2cc3nc(-c4ccc(Br)cc4)cc(C(F)(F)F)n3n2)c(=O)n(-c2ccccc2)n1C | inconclusive: 23.1 µM [falling, partial curve, poor fit] |
| COc1cc(CNC(=O)CCCCCCC(C)C)ccc1O | inactive |
| Cc1ccccc1C(=O)N1CCN(c2ccc([N+](=O)[O-])c(NCc3cccnc3)c2)CC1 | inconclusive: 29.1 µM [falling, single point] |
| CCOC(=O)c1cnc2c(C)cccc2c1Nc1cccc(C(=O)O)c1 | inconclusive: 20.6 µM [falling, partial curve, poor fit] |
| CC(=O)NCCc1ccc(S(=O)(=O)Nc2ccc3c(c2)OCCO3)cc1 | inconclusive: 6.51 µM [activator, single point] |
| O=C(/C=C/c1ccccc1)NC(N1CCOCC1)C(Cl)(Cl)Cl (stereo not given) | inconclusive: 5.8 µM [activator, partial curve, poor fit] |
| Cc1cccn2c(=O)c(/C=C3\SC(=S)NC3=O)c(NCCCN3CCOCC3)nc12 | inconclusive: 18.4 µM [falling, single point] |
| COc1cccc(/C=C/C(=O)OCC(=O)c2c[nH]c3ccccc23)c1 | inactive |
| Cc1cc(C)nc(S/C=C/C(=O)c2ccccc2)n1 | inconclusive: 29.1 µM [falling, single point] |
| Cc1oc(-c2ccc(Cl)cc2)nc1CN1CCCC(C(=O)NCCCN2CCCC2=O)C1 (stereo not given) | inconclusive: 13 µM [falling, partial curve] |
| CCOC(=O)N1CCN(C(=O)COc2ccc(S(=O)(=O)NCc3ccccc3)cc2)CC1 | active: 18.4 µM |
| C=CCn1c(O)c(C=Nc2ccccc2)sc1=S | inconclusive: 29.1 µM [activator, single point] |
| C/C(=N\NC(=O)c1ccc(N/N=C(\C)c2ccncc2)cc1)c1ccncc1 | inactive |
| O=S(=O)(NCc1ccccc1)c1ccc2[nH]c3c(c2c1)CCCCC3 | inconclusive: 29.1 µM [falling, single point] |
| CC(=O)Nc1ccc(S(=O)(=O)N2CCN(Cc3cccs3)CC2)cc1 | inconclusive: 23.1 µM [falling, partial curve] |
| CCN(CC)CCn1c2ccccc2c2nc3ccccc3nc21 | inconclusive: 32.6 µM [falling, single point] |

Compounds listed so far with a nitro group on carbon:

| SMILES | Potency |
| --- | --- |
| Cc1cc(Nc2ccc([N+](=O)[O-])cc2)nc2ccccc12 | inactive |
| Cc1ccccc1C(=O)N1CCN(c2ccc([N+](=O)[O-])c(NCc3cccnc3)c2)CC1 | inconclusive: 29.1 µM [falling, single point] |
